Measured values taken from PubChem BioAssay AID540263 (National Center for Advancing Translational Sciences (NCATS), 2011).
Out of some 340,000 compounds screened, about 100 (0.029%) were called active. All entries are inconclusive by the source's own rule. Clear calls are listed elsewhere. The call rests on the fitted dose curve.
Further: nearly all actives have a fitted effect of over 15% in size.
Potency means the concentration at half of the fitted maximal effect.

By UniProt entry, the sequences of proteins in these tests, tags left out.
UniProt Q14974, whole entry: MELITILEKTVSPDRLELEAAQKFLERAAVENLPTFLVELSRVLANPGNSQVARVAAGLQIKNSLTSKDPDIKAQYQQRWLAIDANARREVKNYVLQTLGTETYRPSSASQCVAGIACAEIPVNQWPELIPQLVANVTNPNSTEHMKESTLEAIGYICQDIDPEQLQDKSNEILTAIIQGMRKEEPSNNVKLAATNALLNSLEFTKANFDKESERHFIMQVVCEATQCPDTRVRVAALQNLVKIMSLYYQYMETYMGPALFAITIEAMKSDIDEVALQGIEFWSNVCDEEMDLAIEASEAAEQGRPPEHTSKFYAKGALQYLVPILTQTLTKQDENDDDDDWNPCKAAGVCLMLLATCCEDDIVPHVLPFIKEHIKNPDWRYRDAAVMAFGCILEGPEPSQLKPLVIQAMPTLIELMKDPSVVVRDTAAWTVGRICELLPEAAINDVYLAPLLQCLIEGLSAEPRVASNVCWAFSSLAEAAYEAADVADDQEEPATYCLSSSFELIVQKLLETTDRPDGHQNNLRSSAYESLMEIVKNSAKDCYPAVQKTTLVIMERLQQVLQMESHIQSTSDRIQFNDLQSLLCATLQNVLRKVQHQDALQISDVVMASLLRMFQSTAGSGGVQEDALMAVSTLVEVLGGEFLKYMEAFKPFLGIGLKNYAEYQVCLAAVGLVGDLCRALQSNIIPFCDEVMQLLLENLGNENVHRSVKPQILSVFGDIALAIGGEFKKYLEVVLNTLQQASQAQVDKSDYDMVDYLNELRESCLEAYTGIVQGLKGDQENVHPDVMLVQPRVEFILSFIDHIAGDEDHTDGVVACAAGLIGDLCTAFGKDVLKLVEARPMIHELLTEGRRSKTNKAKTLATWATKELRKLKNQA
UniProt O95149, whole entry partner: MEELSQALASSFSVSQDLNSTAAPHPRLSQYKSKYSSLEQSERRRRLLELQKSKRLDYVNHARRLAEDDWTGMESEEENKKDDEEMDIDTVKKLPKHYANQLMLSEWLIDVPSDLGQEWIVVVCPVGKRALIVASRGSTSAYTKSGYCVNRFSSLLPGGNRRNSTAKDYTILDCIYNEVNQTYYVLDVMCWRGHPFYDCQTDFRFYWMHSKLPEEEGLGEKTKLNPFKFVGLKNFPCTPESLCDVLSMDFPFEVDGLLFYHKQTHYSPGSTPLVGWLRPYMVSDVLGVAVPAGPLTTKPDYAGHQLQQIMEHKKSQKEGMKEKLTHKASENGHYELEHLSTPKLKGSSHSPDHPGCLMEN

Each molecule was assayed against Importin subunit beta-1 (Homo sapiens) (UniProt Q14974) (assay: qHTS Assay for Inhibitors of Rango (Ran-regulated importin-beta cargo) - Importin beta complex formation). Conditions: Rango CFP/YFP FRET sensor + importin beta, 45 min.
Source text: NIH Molecular Libraries Probe Production Centers Network [MLPCN] NIH Chemical Genomics Center [NCGC] MLPCN Grant: R03 MH090808-01A1 Assay Submitter (PI): Petr Kalab NCGC Assay Overview: The small GTPase Ran regulates transport of macromolecules between the nucleus and the cytoplasm (nuclear transport) and has important functions in mitotic spindle assembly, nuclear envelope (NE) formation and nuclear pore complex (NPC) assembly. RanGTP gradient is thought to promote spindle assembly by providing a spatial clue to microtubule nucleation and Aurora A activation. Because the localized release and binding of importin alpha cargo relays this spatial clue to SAFs, inhibitors of the Rango - importin beta complex can then be used in further understanding their role in cell cycle specifically in mitosis progression. […] Activation of Aurora A has been linked to different types of cancer and a number of Aurora kinase inhibitors are being developed as potential canter therapeutics therefore, identified inhibitors of this complex could be developed into potential anti-mitotic probes for cancer treatment. Purified recombinant proteins Rango and importin beta were provided by the assay submitter. The assay used a fluorescence resonance energy transfer (FRET) Rango biosensor that contains the IBB of human snurportin 1 flanked by yellow fluorescent protein (EYFP) at the amino terminus and cerulean CFP10 at the carboxy terminus. […] Inhibitors will therefore be identified based on the ability to interfere with the FRET signal decrease. DMSO treated and no importin beta (buffer only) wells were used as negative and positive controls respectively. FRET readings were obtained at two time points. FRET reading prior to importin beta addition (pre-read) were used flag potential compound interference; FRET reading after importin beta addition (post-read) were used to identify inhibitors using the FRET ratio parameter.
NCGC Assay Protocol Summary: Two and a half uL/well of Rango-buffer solution (50 nM Rango, 1x PBS, 1mM DTT, 0.02% Tween-20, 0.1% BSA final concentrations) was dispensed into 1536-well assay plates (Greiner, solid black medium-binding plates) with Aurora Discovery BioRAPTR Flying Reagent Dispenser (FRD; Beckton-Dickenson). Compound solution (23 nL) was transferred to the assay plate using Kalypsys pin tool equipped with a 1536-pin tool and incubated at room temperature for 5 min followed by a FRET pre-read using the PerkinElmer Envision plate reader. Two and a half uL/well of Importin beta - buffer solution (0.125 microM importin beta, 1x PBS, 1mM DTT, 0.02% Tween-20, 0.1% BSA final concentrations) were then added and incubated at room temperature giving a final reaction volume of 5uL. After 45min FRET post-read was obtained via the Envision plate reader using the same optics and settings as the pre-read (CFP/YFP optimized dual optical module D450/D505; excitation mirror CFP 430/24 nm; and emission filters CFP 486/10 nm and YFP 530/10 nm).
In the case of `O=C1CCN(Cc2ccccc2)CC1`, the Potency is reported as inconclusive: 126 µM. In the case of `COc1ccc(CN(CCCl)CCCl)cc1Cl`, the Potency is reported as inconclusive: 100 µM. For `CCN1CCC(Nc2ccc(Cl)cc2)CC1`, the Potency was inconclusive: 126 µM. With `N#Cc1ccc(C(=O)NCC2(N3CCCCC3)CCCCC2)cc1` the Potency was inconclusive: 141 µM. With `Cc1ccccc1NC1(C#N)CCN(Cc2ccccc2)CC1` the Potency was inconclusive: 100 µM.
